# Some entries share one result that the patent states for a list of compounds.
# Key:
# Type in all cases: in vivo
# Myzus persicae = test: Test for control efficacy on Myzus persicae (foliar application, potted Chinese cabbage); conditions: 500 ppm, foliar application to potted Chinese cabbage, 6 days after application
# Plutella xylostella = test: Insecticidal test on Plutella xylostella (Chinese cabbage seedlings with laid eggs, dip); conditions: 500 ppm, seedlings with laid eggs dipped about 30 seconds, 25° C., 6 days after dip treatment
# Laodelphax striatellus = test: Insecticidal test on Laodelphax striatellus (rice seedling dip); conditions: 500 ppm, rice seedlings dipped 30 seconds, 3rd-instar larvae, 8 days after inoculation
Molecule,"control efficacy (control rate), activity level (Myzus persicae)","insecticidal efficacy (corrected mortality rate), activity level (Plutella xylostella)","insecticidal efficacy (corrected mortality rate), activity level (Laodelphax striatellus)"
"2-[3-ethylsulfonyl-5-{ethyl(2,2,2-trifluoroethyl)hydrazonyl}pyridin-2-yl]-5-(trifluoromethylthio)benzo[d]oxazole [Compound 2-86]",A (the control rate is 100%),A (the corrected mortality rate is 100%),
"2-[3-ethylsulfonyl-5-{methyl(2,2,2-trifluoroethyl)hydrazonyl}pyridin-2-yl]-5-(trifluoromethylthio)benzo[d]oxazole [Compound 2-50]",A (the control rate is 100%),A (the corrected mortality rate is 100%),A (the corrected mortality rate is 100%)
CCNN=Cc1cnc(-c2nc3cc(C(F)(F)F)cnc3n2C)c(S(=O)(=O)CC)c1 [Compound 1-3],,A (the corrected mortality rate is 100%),
CCS(=O)(=O)c1cc(/C=N/Nc2ccc(SC)cc2)cnc1-c1nc2cc(C(F)(F)F)cnc2n1C [Compound 1-40],,A (the corrected mortality rate is 100%),A (the corrected mortality rate is 100%)
CCS(=O)(=O)c1cc(/C=N/Nc2ccc(C(F)(F)F)cc2)cnc1-c1nc2cc(C(F)(F)F)cnc2n1C [Compound 1-41],A (the control rate is 100%),A (the corrected mortality rate is 100%),A (the corrected mortality rate is 100%)
CCS(=O)(=O)c1cc(/C=N/Nc2ccc(Cl)cc2F)cnc1-c1nc2cc(C(F)(F)F)cnc2n1C [Compound 1-42],A (the control rate is 100%),A (the corrected mortality rate is 100%),A (the corrected mortality rate is 100%)
CCN(CC(F)(F)C(F)F)/N=C/c1cnc(-c2nc3cc(C(F)(F)F)cnc3n2C)c(S(=O)(=O)CC)c1 [Compound 1-89],A (the control rate is 100%),A (the corrected mortality rate is 100%),A (the corrected mortality rate is 100%)
CCS(=O)(=O)c1cc(C=NN(C)CC(F)(F)F)cnc1-c1nc2cc(C(F)(F)F)cnc2n1C [Compound 1-116],A (the control rate is 100%),A (the corrected mortality rate is 100%),A (the corrected mortality rate is 100%)
CCN(CC(F)(F)F)N=Cc1cnc(-c2nc3cc(C(F)(F)F)cnc3n2C)c(S(=O)(=O)CC)c1 [Compound 1-118],A (the control rate is 100%),A (the corrected mortality rate is 100%),A (the corrected mortality rate is 100%)
CCS(=O)(=O)c1cc(/C=N/NC(=O)OC)cnc1-c1nc2cc(C(F)(F)F)cnc2n1C [Compound 1-154],A (the control rate is 100%),A (the corrected mortality rate is 100%),A (the corrected mortality rate is 100%)
CCN(/N=C/c1cnc(-c2nc3cc(C(F)(F)F)cnc3n2C)c(S(=O)(=O)CC)c1)C(=O)OC [Compound 1-156],A (the control rate is 100%),A (the corrected mortality rate is 100%),A (the corrected mortality rate is 100%)
CCOC(=S)N(CC)/N=C/c1cnc(-c2nc3cc(C(F)(F)F)cnc3n2C)c(S(=O)(=O)CC)c1 [Compound 1-308],A (the control rate is 100%),A (the corrected mortality rate is 100%),A (the corrected mortality rate is 100%)
CCN(/N=C/c1cnc(-c2nc3cc(C(F)(F)F)cnc3n2C)c(S(=O)(=O)CC)c1)C(=S)N(C)C [Compound 1-346],A (the control rate is 100%),A (the corrected mortality rate is 100%),A (the corrected mortality rate is 100%)
CCNC(=S)N(CC)/N=C/c1cnc(-c2nc3cc(C(F)(F)F)cnc3n2C)c(S(=O)(=O)CC)c1 [Compound 1-384],A (the control rate is 100%),A (the corrected mortality rate is 100%),A (the corrected mortality rate is 100%)
CCS(=O)(=O)c1cc(/C=N/N)cnc1-c1nc2cc(SC(F)(F)F)ccc2o1 [Compound 2-1],A (the control rate is 100%),A (the corrected mortality rate is 100%),
CCN/N=C/c1cnc(-c2nc3cc(SC(F)(F)F)ccc3o2)c(S(=O)(=O)CC)c1 [Compound 2-3],,A (the corrected mortality rate is 100%),
CCS(=O)(=O)c1cc(/C=N/Nc2ccc(SC)cc2)cnc1-c1nc2cc(SC(F)(F)F)ccc2o1 [Compound 2-40],A (the control rate is 100%),A (the corrected mortality rate is 100%),A (the corrected mortality rate is 100%)
CCS(=O)(=O)c1cc(/C=N/Nc2ccc(C(F)(F)F)cc2)cnc1-c1nc2cc(SC(F)(F)F)ccc2o1 [Compound 2-41],A (the control rate is 100%),A (the corrected mortality rate is 100%),A (the corrected mortality rate is 100%)

Molecule,"control efficacy (control rate), activity level (Myzus persicae)","insecticidal efficacy (corrected mortality rate), activity level (Plutella xylostella)","insecticidal efficacy (corrected mortality rate), activity level (Laodelphax striatellus)"
CCS(=O)(=O)c1cc(/C=N/Nc2ccc(Cl)cc2F)cnc1-c1nc2cc(SC(F)(F)F)ccc2o1 [Compound 2-42],A (the control rate is 100%),A (the corrected mortality rate is 100%),A (the corrected mortality rate is 100%)
CCN(CC(F)(F)C(F)F)/N=C/c1cnc(-c2nc3cc(SC(F)(F)F)ccc3o2)c(S(=O)(=O)CC)c1 [Compound 2-89],,A (the corrected mortality rate is 100%),
CCS(=O)(=O)c1cc(C=NN(C)CC(F)(F)F)cnc1-c1nc2cc(SC(F)(F)F)ccc2o1 [Compound 2-116],,A (the corrected mortality rate is 100%),A (the corrected mortality rate is 100%)
CCN(CC(F)(F)F)N=Cc1cnc(-c2nc3cc(SC(F)(F)F)ccc3o2)c(S(=O)(=O)CC)c1 [Compound 2-118],A (the control rate is 100%),A (the corrected mortality rate is 100%),
CCS(=O)(=O)c1cc(/C=N/NC(=O)OC)cnc1-c1nc2cc(SC(F)(F)F)ccc2o1 [Compound 2-154],,A (the corrected mortality rate is 100%),A (the corrected mortality rate is 100%)
CCN(/N=C/c1cnc(-c2nc3cc(SC(F)(F)F)ccc3o2)c(S(=O)(=O)CC)c1)C(=O)OC [Compound 2-156],A (the control rate is 100%),A (the corrected mortality rate is 100%),
CCS(=O)(=O)c1cc(/C=N/NC(=O)C(F)(F)F)cnc1-c1nc2cc(SC(F)(F)F)ccc2o1 [Compound 2-230],,A (the corrected mortality rate is 100%),
CCOC(=S)N/N=C/c1cnc(-c2nc3cc(SC(F)(F)F)ccc3o2)c(S(=O)(=O)CC)c1 [Compound 2-306],,A (the corrected mortality rate is 100%),
CCNC(=S)N(CC)/N=C/c1cnc(-c2nc3cc(SC(F)(F)F)ccc3o2)c(S(=O)(=O)CC)c1 [Compound 2-384],A (the control rate is 100%),A (the corrected mortality rate is 100%),
CCN/N=C/c1ccc(S(=O)(=O)CC)c(-c2nc3cc(C(F)(F)F)cnc3n2C)n1 [Compound 3-3],,A (the corrected mortality rate is 100%),
CCS(=O)(=O)c1ccc(/C=N/NCC(F)(F)F)nc1-c1nc2cc(C(F)(F)F)cnc2n1C [Compound 3-9],,A (the corrected mortality rate is 100%),
CCS(=O)(=O)c1ccc(/C=N/N)nc1-c1nc2cc(SC(F)(F)F)cnc2o1 [Compound 4-1],,A (the corrected mortality rate is 100%),
CCS(=O)(=O)c1ccc(/C=N/NCC(F)(F)F)nc1-c1nc2cc(SC(F)(F)F)cnc2o1 [Compound 4-9],,A (the corrected mortality rate is 100%),
CCN/N=C/c1ccc(S(=O)(=O)CC)c(-c2nc3cc(OC(F)(F)F)cnc3o2)n1 [Compound 4-460],,A (the corrected mortality rate is 100%),
CCS(=O)(=O)c1ccc(/C=N/NCC(F)(F)F)nc1-c1nc2cc(OC(F)(F)F)cnc2o1 [Compound 4-466],,A (the corrected mortality rate is 100%),
CCS(=O)(=O)c1ccc(/C=N/NC(C)=O)nc1-c1nc2cc(OC(F)(F)F)cnc2o1 [Compound 4-573],,A (the corrected mortality rate is 100%),A (the corrected mortality rate is 100%)
CCN(/N=C/c1ccc(S(=O)(=O)CC)c(-c2nc3cc(OC(F)(F)F)cnc3o2)n1)C(C)=O [Compound 4-575],,A (the corrected mortality rate is 100%),

# From patent US10377754B2, “Hydrazonyl group-containing condensed heterocyclic compound or salt thereof, agricultural and horticultural insecticide comprising the compound, and method for using the insecticide” (Nihon Nohyaku Co., Ltd., priority 2016, dated 2019)
